Record: PubChem BioAssay AID504804 (Drosophila RNAi Screening Center, 2011)
The deposit covers about 19,000 reagents; shown is a random part of those with a known target gene and a result. In the full data, 47 (0.25%) got an active call. 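Signals are raw, not normalised; exact z-scores behind calls not deposited; actives needed confirmation, so some wells reaching 2 SD are inactive.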

Screen: 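dsRNAs that improve Kc cell survival under doxorubicin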 (primary screen)
Cells: Drosophila Kc cells
Reagent: long dsRNA against Drosophila genes, 0.5 µg dsRNA per well
Duration: 96 h (48 h knock-down, then 48 h drug)
Conditions: doxorubicin 5 µg/ml for 48 h, added 48 h after dsRNA
Measurement: 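Luminescent ATP counts per replicate, not normalised, reflecting viable cells after 48 h dsRNA knock-down followed by 48 h of 5 µg/ml doxorubicin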
Reading the numbers: raw ATP luminescence: higher = more viable cells, protection from doxorubicin
Hit rule: 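Active when both duplicate wells lie at least 2 SD above the plate mean and protection is confirmed by rescreening and independent dsRNAs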

Pal2 (GeneID 37746) scored raw ATP luminescence, replicate 1 = 53590; raw ATP luminescence, replicate 2 = 50533; inactive.
After knock-down of nkt (GeneID 39264), the record shows raw ATP luminescence, replicate 1 = 75670; raw ATP luminescence, replicate 2 = 77557; inactive.
Against Nepl16 (GeneID 43014) the deposit lists raw ATP luminescence, replicate 1 = 68280; raw ATP luminescence, replicate 2 = 57290; inactive.
Knock-down of Rpt1 (GeneID 35701) came out at: raw ATP luminescence, replicate 1 = 46233; raw ATP luminescence, replicate 2 = 49707; inactive.
Knock-down of ph-d (GeneID 44889) gave: raw ATP luminescence, replicate 1 = 14710; raw ATP luminescence, replicate 2 = 17190; inactive.
For NfI (GeneID 43782), the entry reads raw ATP luminescence, replicate 1 = 58510; raw ATP luminescence, replicate 2 = 64760; inactive.
Against CG4610 (GeneID 37571), the values are raw ATP luminescence, replicate 1 = 80310; raw ATP luminescence, replicate 2 = 53857; inactive.
With knock-down of CG5391 (GeneID 42611) the results were raw ATP luminescence, replicate 1 = 50860; raw ATP luminescence, replicate 2 = 51300; inactive.
With knock-down of hkb (GeneID 40549), the record shows raw ATP luminescence, replicate 1 = 59490; raw ATP luminescence, replicate 2 = 67737; inactive.
For CG15578 (GeneID 50379) the deposit lists raw ATP luminescence, replicate 1 = 35000; raw ATP luminescence, replicate 2 = 54560; inactive.
Against CG11456 (GeneID 40309), the values are raw ATP luminescence, replicate 1 = 20790; raw ATP luminescence, replicate 2 = 29390; inactive.
Against unc-5 (GeneID 36703), the entry reads raw ATP luminescence, replicate 1 = 76017; raw ATP luminescence, replicate 2 = 90653; inactive.

A portion of the results above, as a working copy:
CG11456 (GeneID 40309) — raw ATP luminescence, replicate 1: 20790; raw ATP luminescence, replicate 2: 29390; Outcome: inactive
unc-5 (GeneID 36703) — raw ATP luminescence, replicate 1: 76017; raw ATP luminescence, replicate 2: 90653; Outcome: inactive
